Results published in PubChem BioAssay AID687031 (Broad Institute, 2013).
Hit rate of the full screen: of about 1,400 compounds, about 50 (4%) were called active.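 How the source made its calls: active means fitted curve reaches 30% CPE protection at or below the top valid dose, with every test run called active; inconclusive means test runs disagree, some active and some not; inactive means every test run inactive, including effects in the wrong direction.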 The list shows a part of the results. Results with a measured potency or affinity are listed apart.

Assay: antiviral rescue of DENV2-infected BHK-21 cells – cell-based, ATP luminescence, cherry-pick, dose response (AID 687031);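 further: 0% = infected DMSO wells and 100% = uninfected cell wells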
Conditions: BHK-21 DENV2 CPE protection, 5 d; at 19.5 µM (top of the series) unless noted
With CC(C)(NC(=O)c1ccccc1)c1nc2ccccc2s1 the CPE protection (higher = active) was inactive: 4.35%. With Cc1cc2oc3ccc(NCCCN4CCOCC4)cc3c(=O)c2cc1C the CPE protection (higher = active) was inactive: 16.8%. With Cc1c(CCC(=O)NCCCN2CCCC2=O)c(=O)oc2cc(O)ccc12 the CPE protection (higher = active) was inactive: -6.14%. With O=C(NCC1CC1)c1onc(CSc2ccc(F)c(F)c2)c1C(=O)NCC1CC1 the CPE protection (higher = active) was inactive: 10.7%. In the case of CCc1ccc(NC(=O)C(C)OC(=O)Cn2[nH]c(=O)c3ccccc3c2=O)cc1 (centres undefined), the CPE protection (higher = active) is reported as inactive: 28.8%. With CCCNC(=O)N1CC2(C1)CN(Cc1cccc(F)c1)[C@@H](CO)c1[nH]c3cc(OC)ccc3c12 the CPE protection (higher = active) was inactive: 0.396%. For C[C@H](NC(=O)[C@H]1[C@H](CO)[C@H]2Cn3c(cccc3=O)[C@@H]1N2Cc1cccnc1)c1ccccc1, the CPE protection (higher = active) was inactive: 2.21% [at 21 µM]. In the case of CCCCCCCNC(=O)C1(CC2CC(c3ccccc3)=NO2)CCN(C(=O)c2ccccc2)CC1 (centres undefined), the CPE protection (higher = active) is reported as inactive: -3.88% [at 10 µM]. For CCCCN1C(Nc2ccccc2)=NC[C@@H]1Cc1ccccc1, the CPE protection (higher = active) was inactive: 9.41%. For CCCN1C[C@H](C)[C@H](OC)CN(C)C(=O)c2cc(NS(=O)(=O)c3cn(C)cn3)ccc2OC[C@@H]1C, the CPE protection (higher = active) was inactive: -5.04%. With CC(C)C[C@@H](COc1ccccc1)N1CCN(CCc2ccccc2)CCC1=O the CPE protection (higher = active) was inactive: 24.5%. With COc1cccc(CNC(=O)[C@H]2CCCN2C(=O)C2CCCN2C(=O)c2ccc(OC)c(F)c2)c1 (some centres undefined) the CPE protection (higher = active) was inactive: -11.5%. In the case of CCN(CC)c1ccc(/C=N/N2C(=O)c3ccccc3C2=O)c(O)c1, the CPE protection (higher = active) is reported as inactive: -7.63%. For CCC(=O)Nc1ccc2c(c1)C(=O)N(C)[C@@H]1CC[C@H](CC(=O)N[C@@H](C)c3ccccc3)O[C@@H]1CO2, the CPE protection (higher = active) was inactive: 30.3%. For CCc1nc2nc(C)c(NS(=O)(=O)c3ccc(Br)s3)c(=O)n2[nH]1, the CPE protection (higher = active) was inactive: -4.69%. With O=C(COc1ccccc1)Nc1ccc(N2CCN(C(=O)c3cccs3)CC2)cc1 the CPE protection (higher = active) was inactive: 6.36%. With C[C@H](CO)N1C[C@H](C)[C@@H](CN(C)C(=O)Nc2ccc(C(F)(F)F)cc2)OCCCC[C@H](C)Oc2ccc(NS(=O)(=O)c3cccs3)cc2C1=O the CPE protection (higher = active) was inactive: 3.94%. In the case of Cc1ccc(C)c(C(Nc2ccccc2)c2ccc3ccc(C)nc3c2O)c1 (centres undefined), the CPE protection (higher = active) is reported as inactive: -13.2%. For O=C(NCCS(=O)(=O)NCc1ccc(F)cc1)c1ccc2c(c1)OCO2, the CPE protection (higher = active) was inactive: 0.287%. For CN1C(C)(C)c2ccccc2OS1(=O)=O, the CPE protection (higher = active) was inactive: 22%. In the case of Cc1cc2oc(=O)cc(Cn3ccnc3)c2cc1Cl, the CPE protection (higher = active) is reported as inactive: 7.63%. For O=S1(=O)CCOCCCN1Cc1ccccc1Br, the CPE protection (higher = active) was inactive: 12.2%. For O=C(c1cnccn1)N1CC[C@@H]2[C@@H](CO)Nc3ccc(-c4ccccc4F)cc3[C@@H]21, the CPE protection (higher = active) was inactive: -9.44% [at 21 µM]. In the case of CSc1ccccc1NC(=O)c1cc2c(=O)n3ccccc3nc2s1, the CPE protection (higher = active) is reported as inactive: -13.1%. With Cc1ccc([C@H]2C[C@@H](n3cc(-c4ccc(F)cc4)nn3)[C@H](O)CN2C(=O)c2cccs2)cc1 the CPE protection (higher = active) was inactive: -9.7%. With CCN(c1ccccc1)S(=O)(=O)c1ccc(OC)c(NC(=O)C2CCC2)c1 the CPE protection (higher = active) was inactive: -14.6%. In the case of COc1ccc(NC(=O)Nc2cccc3c2O[C@H](CN(C)C(=O)Nc2ccc(OC)cc2)[C@@H](C)CN([C@@H](C)CO)C3=O)cc1, the CPE protection (higher = active) is reported as inactive: -19.9%. In the case of COc1cc(S(=O)(=O)NCc2ccncc2)c(OC)cc1Br, the CPE protection (higher = active) is reported as inactive: -11.7%. With CCN1CCC(N2CCN(c3ccc(F)cc3)CC2)CC1 the CPE protection (higher = active) was inactive: 16.7%. With C[C@@H]1CCCCO[C@@H](CN(C)S(C)(=O)=O)[C@@H](C)CN([C@H](C)CO)C(=O)c2cc(NC(=O)c3ccccc3)ccc2O1 the CPE protection (higher = active) was inactive: 2.99%. In the case of CN(C(=O)COC(=O)c1ccc(S(=O)(=O)N2CCOCC2)cc1)c1ccccc1, the CPE protection (higher = active) is reported as inactive: 11.8%. For CCc1ccc(NC(=O)COc2ccc3c(c2)OCO3)cc1, the CPE protection (higher = active) was inactive: 35%. In the case of Cc1ccccc1-c1ccc(C2[C@@H]3CN(C(=O)Cc4ccncc4)C[C@H]2N3)cc1 (some centres undefined), the CPE protection (higher = active) is reported as inactive: -5.08% [at 21 µM]. With CC1CCOC(c2coc3ccccc3c2=O)O1 (centres undefined) the CPE protection (higher = active) was inactive: 9.34%. With O=C(NC1CCCC1)C(C1CC1)n1c(C2CCCC2)nc2ccccc21 (centres undefined) the CPE protection (higher = active) was inactive: -5.67%. With Cc1cn([C@H]2C[C@H](O)[C@@H](CNCc3ccc4ncccc4c3)O2)c(=O)[nH]c1=O the CPE protection (higher = active) was inactive: 0.612%. For Cc1ccccc1OCCC(=O)OCC(=O)NCCc1ccc(S(N)(=O)=O)cc1, the CPE protection (higher = active) was inactive: 2.61%. In the case of CCN1CCN(S(=O)(=O)c2ccc(Cl)c(C(=O)N(C)CCOc3ccc(Cl)cc3)c2)CC1, the CPE protection (higher = active) is reported as inactive: -11.8%. For Cc1ccc(S(=O)(=O)N(C)CC(=O)Oc2ccc(-c3nnco3)cc2)cc1, the CPE protection (higher = active) was inactive: -21.8% [at 10 µM]. With Cc1cc(C)c2[nH]c(C(=O)Nc3ccc4c(c3)OCO4)cc2c1 the CPE protection (higher = active) was inactive: 3.28%. For COc1ccc(C(=S)N2CCOCC2)cc1OC(=O)c1ccccc1, the CPE protection (higher = active) was inactive: 3.84%. For C[C@H](CO)N1C[C@H](C)[C@@H](CN(C)C(=O)C2CC2)Oc2cc(C#Cc3ccccc3)ccc2S1(=O)=O, the CPE protection (higher = active) was inactive: -7.48%. With O=C(Cc1cccc(C(F)(F)F)c1)Nc1ccc(S(=O)(=O)N2CCCC2)cc1 the CPE protection (higher = active) was inactive: -1.95%. With O=C(Cc1cccnc1)N[C@H]1CC[C@@H](CCn2cc(Cc3ccccc3)nn2)O[C@H]1CO the CPE protection (higher = active) was inactive: -2.15%. For C[C@H](CO)N1C[C@H](C)[C@@H](CN(C)S(=O)(=O)c2cn(C)cn2)Oc2ccc(NC(=O)Nc3cccc4ccccc34)cc2CC1=O, the CPE protection (higher = active) was inactive: -3.17% [at 21 µM]. For C[C@@H]1CN([C@H](C)CO)C(=O)c2cc(NC(=O)Nc3ccc(C(F)(F)F)cc3)ccc2O[C@@H]1CN(C)Cc1ccccc1, the CPE protection (higher = active) was inactive: -0.123%. With Cc1ccc(CNC(=O)[C@H](C)N2C(=O)N3CCc4c([nH]c5ccccc45)[C@@]3(C)C2=O)cc1 the CPE protection (higher = active) was inactive: 2.38%. With COc1ccccc1CN1[C@H](CO)[C@H]2c3ccccc3N(C(=O)c3ccncc3)C[C@H]21 the CPE protection (higher = active) was inactive: 1.87% [at 21 µM]. In the case of C[C@H]1CN([C@@H](C)CO)C(=O)c2ccccc2-c2ccccc2CO[C@H]1CN(C)S(=O)(=O)c1cccc(C#N)c1, the CPE protection (higher = active) is reported as inactive: 0.282%. For Nc1nc2c(ncn2[C@@H]2O[C@H](CNCc3ccc(F)c(N4CCOCC4)c3)[C@@H](O)[C@H]2O)c(=O)[nH]1, the CPE protection (higher = active) was inactive: -16%. In the case of Nc1cccc(O)c1, the CPE protection (higher = active) is reported as inactive: 19.3% [at 10 µM]. For CCCNC(=O)N1[C@H](CO)[C@H](c2ccccc2)[C@@H]1CNC(=O)c1ccc(F)cc1, the CPE protection (higher = active) was inactive: 3.14%. With CCOC(=O)C1=CN(CC)S(=O)(=O)NC1c1cccc(OC)c1 (centres undefined) the CPE protection (higher = active) was inactive: 4.62%. For Cc1cccnc1NC(=O)c1ccc(S(=O)(=O)N2CCCC2)cc1, the CPE protection (higher = active) was inactive: 7.33%. In the case of Cc1ccc(OCc2nnc(SCc3cc(=O)[nH]c4ccccc34)n2-c2ccccc2)cc1, the CPE protection (higher = active) is reported as inactive: -15.6%. With COc1ccc(CN2CCC(C(=O)NC(c3ccc4c(c3)OCO4)c3ccccn3)CC2)cc1 (centres undefined) the CPE protection (higher = active) was inactive: 4.46%. For O=C(NCc1cccc(F)c1)[C@@H]1[C@@H](CO)[C@@H]2Cn3c(cccc3=O)[C@H]1N2C(=O)c1cnccn1, the CPE protection (higher = active) was inactive: 3.92%. With CC(C)CC1NC(=O)c2ccccc2-n2c1nc1ccccc1c2=O (centres undefined) the CPE protection (higher = active) was inactive: -9.6%. In the case of O=C(O)C(Cc1ccc(Cl)cc1)NS(=O)(=O)c1ccc(Cl)cc1 (centres undefined), the CPE protection (higher = active) is reported as inactive: -8.16%. For CC(=O)NC(Cc1ccccc1)C(=O)O (centres undefined), the CPE protection (higher = active) was inactive: -1%. For COC(=O)C1=C(C)N(C)C(=NCc2ccc(OC)cc2)NC1c1ccc(F)cc1 (centres undefined), the CPE protection (higher = active) was inactive: 16.6%. For Cc1cccc(N2CCN(C(C(=O)NCc3ccccc3)c3ccc(F)cc3)CC2)c1C (centres undefined), the CPE protection (higher = active) was inactive: -8.34%. In the case of CCN1CCN(c2ccc(S(=O)(=O)N3CCCCC3)cc2NC(=O)c2ccc(C)c(C)c2)CC1, the CPE protection (higher = active) is reported as inactive: -4.78%. With N#Cc1ccc(-c2ccc(OCC(=O)NN=Cc3ccncc3)cc2)cc1 the CPE protection (higher = active) was inactive: -4.99%. With Cn1cnc(S(=O)(=O)N[C@@H]2CC[C@H](CC(=O)NCC3CCCCC3)O[C@@H]2CO)c1 the CPE protection (higher = active) was inactive: 7.9%. With O=C(C1CCCN(S(=O)(=O)c2cccnc2)C1)N1CCN(c2ccccn2)CC1 (centres undefined) the CPE protection (higher = active) was inactive: -5.94%. For Cc1ccc(/C=N/NC(=O)c2ccc(-n3cnnn3)cc2)cc1, the CPE protection (higher = active) was inactive: -4.6%. For COCCNC(=O)C1(C)CCN(C(=O)c2ccc3sccc3c2)C1 (centres undefined), the CPE protection (higher = active) was inactive: -18.1%. For O=C(Oc1ccccc1)c1ccccc1C(=O)Oc1ccccc1, the CPE protection (higher = active) was inactive: 21.1%. With O=C(c1cc(C2CC2)on1)N1CCN(C(c2ccccc2)c2ccccc2)CC1 the CPE protection (higher = active) was inactive: -7.12%. In the case of Cc1ccccc1N1Cc2ccccc2C1=O, the CPE protection (higher = active) is reported as inactive: 6.73%. With C[C@@H](NC(=O)[C@@H]1[C@@H](CO)[C@@H]2Cn3c(cccc3=O)[C@@H]2N1CC1CCCC1)c1ccccc1 the CPE protection (higher = active) was inactive: -38.4%. With Cc1nc2ccn(Cc3ccccc3)c(=O)c2cc1C(=O)N1CCN(c2ccccc2)CC1 the CPE protection (higher = active) was inactive: -15.3%. In the case of O=C(NCCc1ccncc1)[C@@H]1[C@@H](CO)[C@@H]2Cn3c(ccc(-c4cccc(F)c4)c3=O)[C@H]1N2, the CPE protection (higher = active) is reported as inactive: 11.4%. With COc1ccc(N2CCN(CC(O)COc3ccc(F)cc3)CC2)cc1 (centres undefined) the CPE protection (higher = active) was inactive: -9.59%. For COc1ccc(NC(=O)[C@@H]2CC=C[C@@H]3CCN(Cc4ccccc4)C(=O)[C@@H]32)cc1, the CPE protection (higher = active) was inactive: 0.873%. With COc1ccc(CN2C(=O)CCC2(C)c2nnnn2Cc2ccccc2)cc1 (centres undefined) the CPE protection (higher = active) was inactive: -2.96%. In the case of CCC(=O)N1CC2(C1)CN(C(=O)Nc1ccc(F)cc1)[C@H](CO)c1c2c2ccc(OC)cc2n1C, the CPE protection (higher = active) is reported as inactive: 5.8%. In the case of COc1ccc(CCNC2CC(=O)N(C3CCCCC3)C2=O)cc1OC (centres undefined), the CPE protection (higher = active) is reported as inactive: 5.64%.
